Assay results from the supplement of paper PMC7580552.
Structures can show the parent of a compound that is named as a salt. This is one part of the list. Baselines shift from plate to plate; read single values as rough.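 A K-12 lab model strain is cultured statically in 96-well plates; biofilm is measured as the absorbance of crystal violet stain retained in the wells. Drugs counted as candidate specific biofilm blockers if they strongly reduced staining while slowing planktonic growth by under 70%.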

The compounds below were run on Escherichia coli W3110 (assay: biofilm formation (crystal violet staining) relative to untreated control; higher = more biofilm). Settings: 10 µM; 20-24 h; 30 °C; TB.
`C[C@]12CCC(=O)C(O)=C1CC[C@@H]1[C@@H]2CC[C@]2(C)C(=O)CC[C@@H]12` [Formestane] showed a biofilm formation of 44%.
For `CNC(C)(C)Cc1ccccc1` [Mephentermine hemisulfate], the biofilm formation was 74%.
`CN1[C@@H]2CC[C@H]1C[C@@H](OC(=O)C(CO)c1ccccc1)C2` (stereo partly drawn) [Atropine sulfate monohydrate] gave a biofilm formation of 90%.
For `CC(C)C[C@H]1C(=O)N2CCC[C@H]2[C@]2(O)O[C@](NC(=O)[C@@H]3C=C4c5cccc6[nH]c(Br)c(c56)C[C@H]4N(C)C3)(C(C)C)C(=O)N12` [Bromocryptine mesylate], the biofilm formation was 45%.
Work on `CCNCC(O)c1cccc(O)c1` (stereo not drawn) [Etilefrine hydrochloride] yielded a biofilm formation of 67%.
With `CC(C)(N)Cc1ccccc1` [Phentermine hydrochloride] the biofilm formation was 87%.
`CN(C)C(=O)Oc1cccc([N+](C)(C)C)c1` [Neostigmine bromide] was tested, and the biofilm formation was 86%.
`CNC(=O)Oc1ccc2c(c1)[C@]1(C)CCN(C)[C@@H]1N2C` [Eserine hemisulfate salt] gave a biofilm formation of 76%.
With `COc1ccc(C(CN(C)C)C2(O)CCCCC2)cc1` (stereo not drawn) [Venlafaxine] the biofilm formation was 67%.
`C[C@]12CC[C@@H](O)C[C@H]1CC[C@@H]1[C@@H]2CC[C@]2(C)C(=O)CC[C@@H]12` [3-alpha-Hydroxy-5-beta-androstan-17-one] showed a biofilm formation of 70%.
`CN(C)C(=O)Oc1ccc[n+](C)c1` [Pyridostigmine iodide] showed a biofilm formation of 80%.
`C#CCN(C)[C@H](C)Cc1ccccc1` [Selegiline hydrochloride] was tested, and the biofilm formation was 95%.
Work on `O=c1[nH]c2ccccc2n1C1CCN(CCCC(c2ccc(F)cc2)c2ccc(F)cc2)CC1` [Pimozide] yielded a biofilm formation of 55%.
`CC1OC(OC2/C=C/C=C/C=C/C=C/CC/C=C/C=C/[C@H](C)[C@@H](O)[C@@H](C)[C@H](C)OC(=O)CC(O)CC(O)CC(O)CCC(O)C(O)C[C@]3(O)CC(O)C(C(=O)O)C(C2)O3)C(O)C(N)C1O` (stereo partly drawn) [Nystatine] gave a biofilm formation of 51%.
Work on `NCCCNCCSP(=O)(O)O` [Amifostine] yielded a biofilm formation of 69%.
Compound `CCC(=O)O[C@H]1CC[C@H]2[C@@H]3CCC4=CC(=O)CC[C@]4(C)[C@H]3CC[C@]12C` [Testosterone propionate] has a biofilm formation of 82%.
`COc1ccc(OC)c(C(O)C(C)N)c1` (stereo not drawn) [Methoxamine hydrochloride] gave a biofilm formation of 55%.
For `C[C@@H]1CN([C@H]2CC[C@](C#N)(c3ccc(F)cc3)CC2)CC[C@]1(C(=O)O)c1ccccc1` [Levocabastine hydrochloride], the biofilm formation was 107%.
Compound `O=C(CCCN1CCC(n2c(=O)[nH]c3ccccc32)CC1)c1ccc(F)cc1` [Benperidol] has a biofilm formation of 87%.
`C=CCC1(CC(C)C)C(=O)NC(=O)NC1=O` [Butalbital] was tested, and the biofilm formation was 93%.
`NC(=O)OCCCc1ccccc1` [Phenprobamate] was tested, and the biofilm formation was 78%.
Compound `OC(c1ccccc1)(c1ccccc1)C1CCNCC1` [Azacyclonol] has a biofilm formation of 68%.
For `C[N+]1(C)CCCC(OC(=O)C(O)(c2ccccc2)c2ccccc2)C1` (stereo not drawn) [Mepenzolate bromide], the biofilm formation was 83%.
`CCCC(C)(COC(N)=O)COC(=O)NC(C)C` (stereo not drawn) [Carisoprodol] was tested, and the biofilm formation was 79%.
In the case of `C=C1C[C@@H]2[C@H](CC[C@]3(C)C(=O)CC[C@@H]23)[C@@]2(C)C=CC(=O)C=C12` [Exemestane], the biofilm formation was 67%.
Work on `CC(=O)[C@H]1CC[C@H]2[C@@H]3CC[C@H]4C[C@H](O)CC[C@]4(C)[C@H]3C(=O)C[C@]12C` [Alfaxalone] yielded a biofilm formation of 80%.
`C[C@]12C/C(=C/O)C(=O)C[C@@H]1CC[C@@H]1[C@@H]2CC[C@@]2(C)[C@H]1CC[C@]2(C)O` [Oxymetholone] gave a biofilm formation of 69%.
`COC[C@@H](NC(C)=O)C(=O)NCc1ccccc1` [Lacosamide] showed a biofilm formation of 59%.
For `CN1C(=O)CCS(=O)(=O)C1c1ccc(Cl)cc1` (stereo not drawn) [Chlormezanone], the biofilm formation was 52%.
For `C[C@]12COC(=O)C[C@@H]1CC[C@@H]1[C@@H]2CC[C@@]2(C)[C@H]1CC[C@]2(C)O` [Oxandrolone], the biofilm formation was 62%.
In the case of `CCCCCC[C@H]1C(=O)O[C@H](C)[C@H](NC(=O)c2cccc(NC=O)c2O)C(=O)O[C@@H](C)[C@@H]1OC(=O)CC(C)C` [Antimycin A], the biofilm formation was 68%.
`c1ccc2c(c1)OCC(C1=NCCN1)O2` (stereo not drawn) [Idazoxan hydrochloride] gave a biofilm formation of 56%.
For `CC[N+]1(C)CCCC(OC(=O)C(O)(c2ccccc2)c2ccccc2)C1` (stereo not drawn) [Pipenzolate bromide], the biofilm formation was 95%.
`COc1cc2c(c(OC)c1OC)-c1ccc(OC)c(=O)cc1[C@@H](NC(C)=O)CC2` [Colchicine] gave a biofilm formation of 48%.
Compound `CN1C[C@H](CNC(=O)OCc2ccccc2)C[C@@H]2c3cccc4c3c(cn4C)C[C@H]21` [Metergoline] has a biofilm formation of 48%.
Compound `CC(=O)O[C@H]1CC[C@@]2(C)C(=CC[C@@H]3[C@@H]2CC[C@]2(C)C(=O)CC[C@@H]32)C1` [Dehydroisoandosterone 3-acetate] has a biofilm formation of 50%.
With `O=C(NCNC(=O)NC1C(=O)NC(=O)N1CO)NC1C(=O)NC(=O)N1CO` (stereo not drawn) [Imidurea] the biofilm formation was 76%.
`Oc1ccc2c3c1O[C@H]1[C@@H](O)CC[C@@]4(O)[C@@H](C2)N(CC2CCC2)CC[C@]314` [Nalbuphine hydrochloride] gave a biofilm formation of 58%.
`C[C@]12CC[C@H](O)C[C@H]1CC[C@@H]1[C@@H]2CC[C@]2(C)[C@@H](C3=CC(=O)OC3)CC[C@]12O` [Digitoxigenin] showed a biofilm formation of 60%.
`CC(C)c1cccc(C(C)C)c1O` [Propofol] was tested, and the biofilm formation was 69%.
For `CCOC(=O)c1cncn1[C@H](C)c1ccccc1` [Etomidate], the biofilm formation was 85%.
With `CC(O)(CS(=O)(=O)c1ccc(F)cc1)C(=O)Nc1ccc(C#N)c(C(F)(F)F)c1` (stereo not drawn) [Bicalutamide] the biofilm formation was 80%.
In the case of `NCC1(CC(=O)O)CCCCC1` [Gabapentin], the biofilm formation was 87%.
With `O=[N+]([O-])O[C@H]1CO[C@H]2[C@@H]1OC[C@H]2O[N+](=O)[O-]` [Isosorbide dinitrate] the biofilm formation was 96%.
Work on `C=C1CC[C@@]2(O)[C@H]3Cc4ccc(O)c5c4[C@@]2(CCN3CC2CC2)[C@H]1O5` [Nalmefene hydrochloride] yielded a biofilm formation of 76%.
Work on `O=C(CCCN1CCC2(CC1)C(=O)NCN2c1ccccc1)c1ccc(F)cc1` [Spiperone] yielded a biofilm formation of 50%.
In the case of `CC(N)C(O)c1ccccc1` (stereo not drawn) [Phenylpropanolamine hydrochloride], the biofilm formation was 64%.
For `O=c1[nH]oc2c1CCNC2` [THIP Hydrochloride], the biofilm formation was 87%.
In the case of `CC[C@@H](CO)NC(=O)[C@@H]1C=C2c3cccc4[nH]cc(c34)C[C@H]2N(C)C1` [Methylergometrine maleate], the biofilm formation was 68%.
With `C[C@@H]1C[C@@H]([C@H](O)CC2CC(=O)NC(=O)C2)C(=O)[C@@H](C)C1` [Cycloheximide] the biofilm formation was 98%.
In the case of `Cc1cc(C(C#N)c2ccc(Cl)cc2)c(Cl)cc1NC(=O)c1cc(I)cc(I)c1O` (stereo not drawn) [Closantel], the biofilm formation was 84%.
`CC(NC(C)(C)C)C(=O)c1cccc(Cl)c1` (stereo not drawn) [Bupropion hydrochloride] was tested, and the biofilm formation was 60%.
In the case of `CN1CCC2(C)c3cc(O)ccc3N(C)C12` (single isomer, unassigned; (-)) [(-)-Eseroline fumarate salt], the biofilm formation was 76%.
With `O=C1CC[C@@]2(O)[C@H]3Cc4ccc(O)c5c4[C@@]2(CCN3CC2CC2)[C@H]1O5` [Naltrexone hydrochloride dihydrate] the biofilm formation was 57%.
Work on `CN1CCN(C(=O)O[C@H]2c3nccnc3C(=O)N2c2ccc(Cl)cn2)CC1` [Eszopiclone] yielded a biofilm formation of 57%.
Work on `CN[C@@H]1[C@@H](O)[C@@H](O[C@@H]2[C@@H](O)[C@H](O[C@H]3O[C@H](CN)CC[C@H]3N)[C@@H](N)C[C@H]2N)OC[C@]1(C)O.CN[C@@H]1[C@@H](O)[C@@H](O[C@@H]2[C@@H](O)[C@H](O[C@H]3O[C@H]([C@@H](C)N)CC[C@H]3N)[C@@H](N)C[C@H]2N)OC[C@]1(C)O.CN[C@@H]1[C@@H](O)[C@@H](O[C@@H]2[C@@H](O)[C@H](O[C@H]3O[C@H]([C@@H](C)NC)CC[C@H]3N)[C@@H](N)C[C@H]2N)OC[C@]1(C)O` [Gentamicine sulfate] yielded a biofilm formation of 32%.
`NCC(CC(=O)O)c1ccc(Cl)cc1` (racemic) [Baclofen (R,S)] was tested, and the biofilm formation was 58%.
`N[C@@H]1C[C@H]1c1ccccc1` [Tranylcypromine hydrochloride] gave a biofilm formation of 70%.
In the case of `C#C[C@]1(O)CC[C@H]2[C@@H]3CCC4=CC(=O)CCC4=C3C=C[C@@]21CC` [Gestrinone], the biofilm formation was 95%.
`CN1[C@@H]2C[C@@H](OC(=O)[C@H](CO)c3ccccc3)C[C@H]1[C@@H]1O[C@@H]12` [Scopolamine hydrochloride] gave a biofilm formation of 89%.
With `C[C@]12CCC(=O)C=C1C=C[C@@H]1[C@@H]2CC[C@@]2(C)[C@H]1CC[C@@]2(O)CCC(=O)O` [Canrenoic acid potassium salt] the biofilm formation was 85%.
`CCCC(C)C1(CC)C(=O)NC(=O)NC1=O` (stereo not drawn) [Pentobarbital] was tested, and the biofilm formation was 97%.
Compound `C=CCN1CC[C@]23c4c5ccc(O)c4O[C@H]2C(=O)CC[C@@]3(O)[C@H]1C5` [Naloxone hydrochloride] has a biofilm formation of 111%.
For `CC(=O)O[C@H]1C[C@@H]2CC[C@@H]3[C@H](CC[C@@]4(C)[C@H]3C[C@H]([N+]3(C)CCCCC3)[C@@H]4OC(C)=O)[C@@]2(C)C[C@@H]1[N+]1(C)CCCCC1` [Pancuronium bromide], the biofilm formation was 67%.
Work on `c1ccc2c(c1)Nc1ccccc1S2` [Phenothiazine] yielded a biofilm formation of 61%.
With `COc1ccc(CN2CCNCC2)c(OC)c1OC` [Trimetazidine dihydrochloride] the biofilm formation was 76%.
`C[C@]12CC[C@H]3[C@@H](CCC4=CC(=O)CC[C@@H]43)[C@@H]1CC[C@@H]2O` [Nandrolone] was tested, and the biofilm formation was 64%.
`CN1[C@@H]2CC[C@H]1C[C@@H](OC(=O)[C@H](CO)c1ccccc1)C2` [Hyoscyamine (L)] showed a biofilm formation of 95%.
